Measurements reported in paper doi:10.1101/2025.05.16.654433.
Substitutions are numbered along the chain they refer to. Results are given in words; binding and its absence hold for the method and conditions named. In cells and extracts the contact can be indirect. These calls come from enrichment with a bait or labelling near it, and not all partners need be listed. Sequences can lack the tags named with a protein.

Amino acid sequences for entries named in this document (tags omitted).
UniProt P48727: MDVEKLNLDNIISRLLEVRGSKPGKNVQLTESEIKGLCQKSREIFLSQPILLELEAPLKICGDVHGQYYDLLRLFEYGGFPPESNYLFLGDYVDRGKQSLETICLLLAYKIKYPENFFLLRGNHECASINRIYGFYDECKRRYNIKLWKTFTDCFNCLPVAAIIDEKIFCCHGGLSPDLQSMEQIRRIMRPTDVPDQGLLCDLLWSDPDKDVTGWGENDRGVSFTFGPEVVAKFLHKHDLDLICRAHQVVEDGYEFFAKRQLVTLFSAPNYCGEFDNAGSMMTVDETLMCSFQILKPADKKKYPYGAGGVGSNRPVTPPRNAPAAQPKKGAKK

Legend:
[1] = biological target: T1, APE-1 N583K, 3xflag-tagged, as in the MudPIT immunoprecipitations (C. elegans) (UniProt Q9XVN3); assay: affinity purification with mass spectrometry; 3xflag immunoprecipitation from C. elegans whole-worm lysates (M2 magnetic FLAG beads overnight at 4°C, eluted with 3xFLAG peptide), MudPIT proteomics
T1 sequence: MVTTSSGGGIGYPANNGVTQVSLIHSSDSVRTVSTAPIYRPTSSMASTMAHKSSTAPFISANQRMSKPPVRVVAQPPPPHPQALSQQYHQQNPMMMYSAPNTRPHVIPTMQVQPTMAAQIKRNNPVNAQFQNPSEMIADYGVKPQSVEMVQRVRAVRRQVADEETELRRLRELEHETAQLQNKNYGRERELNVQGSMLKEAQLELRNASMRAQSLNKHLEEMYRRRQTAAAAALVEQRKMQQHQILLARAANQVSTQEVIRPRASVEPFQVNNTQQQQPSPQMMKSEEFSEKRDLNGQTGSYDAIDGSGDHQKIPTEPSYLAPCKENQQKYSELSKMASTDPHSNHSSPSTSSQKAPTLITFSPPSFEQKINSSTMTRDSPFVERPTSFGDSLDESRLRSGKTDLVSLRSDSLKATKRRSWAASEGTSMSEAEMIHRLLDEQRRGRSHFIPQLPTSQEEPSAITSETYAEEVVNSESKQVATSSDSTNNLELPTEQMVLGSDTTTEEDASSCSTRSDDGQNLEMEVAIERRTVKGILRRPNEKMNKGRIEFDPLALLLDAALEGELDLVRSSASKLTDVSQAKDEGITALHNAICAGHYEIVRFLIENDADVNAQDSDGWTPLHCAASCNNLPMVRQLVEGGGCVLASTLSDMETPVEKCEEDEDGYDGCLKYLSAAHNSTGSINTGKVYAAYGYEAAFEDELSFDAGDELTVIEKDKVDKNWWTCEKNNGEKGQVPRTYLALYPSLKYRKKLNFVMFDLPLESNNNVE

[2] = biological target: T2, APE-1 H591Y, 3xflag-tagged, as in the MudPIT immunoprecipitations (C. elegans) (UniProt Q9XVN3); assay: as above
T2 sequence: T1 sequence with K583N, H591Y

binding [1]: binds
binding [2]: binds
Substance: GSP-2 (C. elegans PP1 homolog), as found in the MudPIT immunoprecipitations (from UniProt P48727 1-333) (enzyme)
